Measurements reported in PubChem BioAssay AID504804 (Drosophila RNAi Screening Center, 2011)
Screen: 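Knock-downs shielding fly cells from apoptosis caused by DNA damage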 (primary screen). Cell system: Drosophila Kc cells. Reagents: long dsRNA against Drosophila genes, 0.5 µg dsRNA per well. Timing: 96 h (48 h knock-down, then 48 h drug). Conditions: doxorubicin 5 µg/ml for 48 h, added 48 h after dsRNA. Measurement: 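Luminescent ATP counts per replicate, not normalised, reflecting viable cells after 48 h dsRNA knock-down followed by 48 h of 5 µg/ml doxorubicin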. Reading the numbers: raw ATP luminescence: higher = more viable cells, protection from doxorubicin. Rule for the call: 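Active when both duplicate wells lie at least 2 SD above the plate mean and protection is confirmed by rescreening and independent dsRNAs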.
The deposit covers about 19,000 reagents; shown is an unselected part of those that have a named target and a result. Of all reagents, 47 (0.25%) were called active. 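Signals are raw, not normalised; exact z-scores behind calls not deposited; actives needed confirmation, so some wells reaching 2 SD are inactive.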 A plus sign joins genes that one reagent is predicted to hit.

Gene | DRSC id | raw ATP luminescence, replicate 1 | raw ATP luminescence, replicate 2 | call
cold | DRSC00538 | 1.17e5 | 66240 | inactive
Tm2 | DRSC16887 | 80040 | 61330 | inactive
sqa | DRSC06693 | 67110 | 50597 | inactive
Snm1 | DRSC12130 | 48027 | 25280 | inactive
CG9406 | DRSC04552 | 30833 | 33907 | inactive
Acsl | DRSC07252 | 55490 | 51413 | inactive
CG33648 | DRSC01387 | 3.43e5 | 2.64e5 | inactive
ago | DRSC08463 | 29887 | 34413 | inactive
CG15225 | DRSC04232 | 50670 | 49680 | inactive
CG18666 | DRSC02694 | 26023 | 75753 | inactive
RpS21 | DRSC00833 | 76637 | 1.15e5 | inactive
Tsen54 | DRSC10527 | 58317 | 63093 | inactive
CecB | DRSC16605 | 31550 | 42540 | inactive
CG12836 | DRSC06182 | 43003 | 66400 | inactive
Mst77F | DRSC11871 | 77690 | 58230 | inactive
Nca | DRSC11233 | 65487 | 55680 | inactive
CG34011 | DRSC00888 | 2.97e5 | 2.87e5 | inactive
ppk11 | DRSC02737 | 39030 | 58710 | inactive
CG12708 | DRSC19490 | 3.78e5 | 3.36e5 | inactive
Ifrd1 | DRSC00415 | 43403 | 32697 | inactive
Ifrd1 | DRSC00566 | 32090 | 27937 | inactive
CG15279 | DRSC01935 | 1.26e5 | 85583 | inactive
Trx2 | DRSC03622 | 36053 | 71723 | inactive
CG34423 + Mthfs | DRSC04088 | 45473 | 53140 | inactive
CG32213 + CG12519 + 825-Oak + 1 more | DRSC09615 | 78037 | 66270 | inactive
CG4452 | DRSC10422 | 32557 | 36473 | inactive
Pfdn1 | DRSC02325 | 21150 | 26907 | inactive
MESR3 | DRSC02463 | 43983 | 40633 | inactive
CG10494 | DRSC04072 | 93507 | 62357 | inactive
CG10638 | DRSC09762 | 55970 | 48473 | inactive
Bug22 | DRSC02842 | 33827 | 53563 | inactive
Dnaaf6 | DRSC10473 | 49070 | 41790 | inactive
CG14369 | DRSC14831 | 76000 | 74580 | inactive
CG31533 | DRSC13018 | 2.10e5 | 2.67e5 | inactive
Nepl20 | DRSC14878 | 55970 | 33470 | inactive
CG10479 | DRSC09733 | 45240 | 32840 | inactive
smg | DRSC11397 | 52067 | 42170 | inactive
dpr12 | DRSC04814 | 91137 | 91483 | inactive
dpr12 | DRSC04863 | 73130 | 57677 | inactive
dpr12 | DRSC04892 | 45493 | 57540 | inactive
CG12567 | DRSC20845 | 3.60e5 | 2.71e5 | inactive
Syx4 | DRSC18586 | 48460 | 40310 | inactive
eIF3k | DRSC04056 | 82580 | 84380 | inactive
CG15249 | DRSC17978 | 3.53e5 | 3.59e5 | inactive
CG8319 | DRSC16407 | 52130 | 55237 | inactive
Gat | DRSC17144 | 52320 | 59890 | inactive
Aduk | DRSC16451 | 45337 | 53033 | inactive
EMC2B + EMC2A | DRSC15241 | 70060 | 50000 | inactive
CG7080 | DRSC16193 | 46637 | 33100 | inactive
MYPT-75D | DRSC10743 | 25293 | 42860 | inactive
lqfR | DRSC14703 | 42820 | 34220 | inactive
lqfR | DRSC14704 | 56420 | 48080 | inactive
CG5639 | DRSC15851 | 41880 | 41300 | inactive
JIL-1 | DRSC11200 | 44563 | 34530 | inactive
c11.1 | DRSC18749 | 3.17e5 | 3.41e5 | inactive
CG10512 | DRSC11615 | 57943 | 49360 | inactive
CG5810 | DRSC15880 | 38160 | 34350 | inactive
nht | DRSC01976 | 62107 | 72793 | inactive
CG14835 | DRSC10205 | 74443 | 88270 | inactive
nanos | DRSC17018 | 46700 | 50370 | inactive
CR18275 + CR18166 + CG32817 | DRSC17249 | 2.31e5 | 2.14e5 | inactive
Dhc98D | DRSC16645 | 62900 | 35570 | inactive
Cyp6d2 | DRSC04606 | 70057 | 46140 | inactive
CG6959 | DRSC16151 | 58760 | 49580 | inactive
CG3277 | DRSC00588 | 31437 | 28300 | inactive
CG10222 | DRSC09714 | 67060 | 65917 | inactive
ctrip | DRSC12242 | 47473 | 46573 | inactive
ctrip | DRSC12287 | 38910 | 34317 | inactive
retm | DRSC03252 | 89810 | 62217 | inactive
Targ1 | DRSC11616 | 60237 | 53340 | inactive
vari | DRSC03202 | 67797 | 60687 | inactive
CG10597 | DRSC19357 | 2.15e5 | 2.52e5 | inactive
CG17806 | DRSC15276 | 38783 | 34233 | inactive
GAPcenA | DRSC10771 | 81693 | 72687 | inactive
SelT | DRSC02732 | 84890 | 69800 | inactive
CG14220 | DRSC19577 | 3.35e5 | 2.57e5 | inactive
CG13471 | DRSC10015 | 62370 | 50173 | inactive
Hsp26 | DRSC11189 | 37470 | 30993 | inactive
Hmgcl | DRSC02051 | 19177 | 27870 | inactive
MICU3 | DRSC13381 | 2.02e5 | 1.92e5 | inactive
MICU3 | DRSC15613 | 42720 | 38103 | inactive
BNIP3 | DRSC11761 | 73807 | 68127 | inactive
Nrg | DRSC17573 | 1.97e5 | 1.83e5 | inactive
CG8172 | DRSC07089 | 71960 | 55093 | inactive

Single entries from the entries so far:
Value for CG14835 [DRSC10205] in “raw ATP luminescence, replicate 2”: 88270
Value of CG7080 [DRSC16193] under “raw ATP luminescence, replicate 2”: 33100
Pfdn1 [DRSC02325], raw ATP luminescence, replicate 2: 26907
Entry for RpS21 [DRSC00833] under “call”: inactive
Under “call”, CG10494 [DRSC04072] is entered as inactive
Result for Nca [DRSC11233] under “raw ATP luminescence, replicate 2”: 55680
